These results are taken from patent US20110200622A1 (SAMSUNG ELECTRONICS, published 2011).

Protein sequences, listed by entry. Tags and fused reporters are not part of them. Lines headed by an entry give the natural chain unless they say otherwise; changes in a name come on top. Chains listed by the source or under a name are the forms on record and can include a tag or linker.
human VEGF (R&D systems, Inc.; catalog #293-VE) (P15692, form named): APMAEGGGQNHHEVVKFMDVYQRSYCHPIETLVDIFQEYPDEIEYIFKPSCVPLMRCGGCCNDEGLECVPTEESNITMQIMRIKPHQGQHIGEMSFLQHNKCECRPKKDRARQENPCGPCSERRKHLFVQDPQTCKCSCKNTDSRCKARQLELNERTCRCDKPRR

In the assay the target is human VEGF (R&D systems, Inc.; catalog #293-VE) (human) (UniProt P15692). The assay can be described thus: phage ELISA on plate-immobilised human VEGF, anti-M13-HRP, OD450. For orientation: An ELISA detects its analyte on a solid surface through an enzyme-linked reagent.

Results are given in words; binding and its absence hold for the method and conditions named. Some entries that bind do so weakly or less than the wild type.

On to DRFTMWDSQS (peptide, not shown: large carriers) [polypeptide clone number 80, displayed on phage], for which the binding entry is on record as “binds”.
